The test deals with GUS (cLUC-GUS and nLUC-GUS), P05804. Put plainly: split reporter; luciferase complementation imaging; cLUC and nLUC fusions co-expressed in N. benthamiana leaves, read 48 h after infiltration with 1 mM D-luciferin. The settings on record: remark: other sources report otherwise.

These are yes or no findings as the source states them, for the method shown. In cells and extracts the contact can be indirect. Where a sequence is shown, tags or fusion partners need not be part of it.

B1: GUS (cLUC-GUS and nLUC-GUS), P05804 1-603 (enzyme)
chain: MLRPVETPTREIKKLDGLWAFSLDRENCGIDQRWWESALQESRAIAVPGSFNDQFADADIRNYAGNVWYQREVFIPKGWAGQRIVLRFDAVTHYGKVWVNNQEVMEHQGGYTPFEADVTPYVIAGKSVRITVCVNNELNWQTIPPGMVITDENGKKKQSYFHDFFNYAGIHRSVMLYTTPNTWVDDITVVTHVAQDCNHASVDWQVVANGDVSVELRDADQQVVATGQGTSGTLQVVNPHLWQPGEGYLYELCVTAKSQTECDIYPLRVGIRSVAVKGEQFLINHKPFYFTGFGRHEDADLRGKGFDNVLMVHDHALMDWIGANSYRTSHYPYAEEMLDWADEHGIVVIDETAAVGFNLSLGIGFEAGNKPKELYSEEAVNGETQQAHLQAIKELIARDKNHPSVVMWSIANEPDTRPQGAREYFAPLAEATRKLDPTRPITCVNVMFCDAHTDTISDLFDVLCLNRYYGWYVQSGDLETAEKVLEKELLAWQEKLHQPIIITEYGVDTLAGLHSMYTDMWSEEYQCAWLDMYHRVFDRVSAVVGEQVWNFADFATSQGILRVGGNKKGIFTRDRKPKSAAFLLQKRWTGMNFGEKPQQGGKQ
For the molecule B1, the binding entry was “no binding”.

Source of the values: publication PMC12392927.
